PubChem BioAssay AID1259254 – NCATS | 2017

Assay: 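Gene knock-downs that lead to re-replication, shown by excess G2 DNA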 (primary screen)
Cell system: human HCT116 colorectal cancer cells
Knock-down reagent: single siRNA against human genes
Timing: 3 days
Detection: 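Imaged Hoechst DNA stain sorts each cell into a cycle phase by DNA amount; per plate, G2 fraction set to 0% for non-targeting and 100% for GMNN siRNA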
Reading the numbers: G2 robust z-score and G2 cells, % of GMNN control: higher = more G2 cells, more excess DNA replication
Rule for the call: 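Active siRNAs have a G2 robust z of 5 or more median absolute deviations over the median, which in these data means about 38% or higher of GMNN control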
Shown is one part, drawn at random, of about 59,000 reagents tested. About 1,550 of all reagents (2.6%) were called active. 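G2 share is only a proxy for re-replication; each gene was hit by three separate siRNAs, and active genes were retested.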 Entries without a mark were called inactive. The numbers tell different reagents against one gene apart. Further read-outs or replicates are left out here. Not stated in the record: the amount of reagent.

gene knocked down	reagent	G2 robust z-score	G2 cells, % of GMNN control
ASTL	1	-1.31	-6.24
ASTL	2	-0.0772	2.42
ASTL	3	1.05	10.4
DNAJB5	1	-0.201	1.55
DNAJB5	2	-0.47	-0.34
DNAJB5	3	1.66	14.6
NAV2	1	-0.372	0.352
NAV2	2	0.0894	3.6
NAV2	3	0.513	6.58
CD2	1	-0.927	-3.55
CD2	2	4.45	34.2
CD2	3	-1.75	-9.34
ADNP	1	1.2	11.4
ADNP	2	0.626	7.37
ADNP	3	-1.16	-5.16
BPIFB1	1	-0.619	-1.39
BPIFB1	2	-0.217	1.44
BPIFB1	3	0.743	8.2
CNBD1	1	-0.89	-3.29
CNBD1	2	-0.922	-3.52
CNBD1	3	-0.146	1.94
ERO1B	1	-0.634	-1.5
ERO1B	2	0.74	8.17
ERO1B	3	0.129	3.88
KLK1	1	0.461	6.21
KLK1	2	-0.398	0.166
KLK1	3	0.00978	3.04
LEFTY2	1	0.448	6.12
LEFTY2	2	-0.642	-1.55
LEFTY2	3	0.615	7.3
DCTN4	1	0.432	6.01
DCTN4	2	-0.692	-1.9
DCTN4	3	3.86	30.1
RPL14	1	2.61	21.3
RPL14	2	2.47	20.3
RPL14	3	4.63	35.5
RPS15	1	8.94 (active)	65.8
RPS15	2	4.34	33.5
RPS15	3	0.988	9.92
ZNF568	1	-0.481	-0.418
ZNF568	2	0.08	3.53
ZNF568	3	-0.397	0.173
SCGB2A1	1	-1.26	-5.88
SCGB2A1	2	-0.373	0.346
SCGB2A1	3	-0.833	-2.89

Quoted from the listing, 9 entries:
gene knocked down	reagent	G2 robust z-score	G2 cells, % of GMNN control
BPIFB1	3	0.743	8.2
CNBD1	1	-0.89	-3.29
CNBD1	2	-0.922	-3.52
CNBD1	3	-0.146	1.94
ERO1B	1	-0.634	-1.5
ERO1B	2	0.74	8.17
ERO1B	3	0.129	3.88
KLK1	1	0.461	6.21
KLK1	2	-0.398	0.166

The listing continues:
gene knocked down	reagent	G2 robust z-score	G2 cells, % of GMNN control
IL23R	1	0.715	8
IL23R	2	-0.433	-0.077
IL23R	3	1.02	10.1
COL19A1	1	-0.0522	2.6
COL19A1	2	-0.745	-2.27
COL19A1	3	-0.911	-3.44
PER1	1	0.163	4.11
PER1	2	-0.796	-2.64
PER1	3	-0.188	1.65
PRAMEF7	1	-1.12	-4.93
PRAMEF7	2	2.97	23.9
PRAMEF7	3	-0.812	-2.75
F2RL2	1	1.82	15.8
F2RL2	2	-0.301	0.849
F2RL2	3	-0.815	-2.76
MS4A6E	1	-0.758	-2.36
MS4A6E	2	0.373	5.59
MS4A6E	3	-0.123	2.1
EMILIN1	1	-0.78	-2.52
EMILIN1	2	3.14	25.1
EMILIN1	3	-0.0692	2.48
TRPC1	1	3.03	24.3
TRPC1	2	-0.152	1.9
TRPC1	3	0.403	5.81
